The text below walks through data of patent US20260325510A1, “COMBINATIONS COMPRISING AN ATR INHIBITOR AND A PARP INHIBITOR AND METHODS OF USE THEREOF” (Jazz Pharmaceuticals Therapeutics, Inc., priority 2023, published 2026).

The nature of the data set: Hematology tolerability study. Particulars: free ATR inhibitor in combination with free niraparib. In kind it is in vivo, female C57BL/6 mice. The protocol: In order to study the effects of hematology tolerability under different dosing regimens, 8-12 week old, female C57BL/6 mice were used. Body weight was measured qd×5, then biweekly to the end of the study. Animals were weighed and monitored for survival and in-life observations were collected at the time of weight measurement. Mice were organized into appropriate groups consisting of control (empty vehicle) and treatment groups including free niraparib, free niraparib plus Berzosertib, free niraparib plus Elimusertib and a combination of free niraparib and liposomal Compound A. Mice were given orally, or injected intravenously, with the required volume of sample to administer the prescribed dose to the animals based on individual mouse weights on dosing days. Mice were monitored individually to endpoint which was 18 days. Full volume blood was collected by terminal cardiac puncture under isoflurane anesthesia and analyzed for reticulocyte count/number, red blood cell count/number, hemoglobin, hematocrit, platelet count/number, white blood cell count/number, neutrophil count/number, monocyte count/number and lymphocyte count/number.

As to `C[C@@H]1COCCN1c1cc(-c2ccnn2C)c2ccnc(-c3ccn[nH]3)c2n1` [elimusertib], the hematological toxicity result was “severe reticulocytopenia and leukopenia”.
